Test results published in patent US20230030032A1 (AGGAMIN, published 2023).
Results are given in words; binding and its absence hold for the method and conditions named. Some results given as binding are weak or reduced against the parent protein; the word gives no strength.

Tests used:
[1] = molecular target: T1, soluble Endoglin (sEng), recombinant, as spiked or purified protein (human) (UniProt P17813); assay: preformed equimolar Bmp9-sEng complex captured through sEng on coated cENG10 and detected with anti-Bmp9 antibody
T1 sequence (looked up): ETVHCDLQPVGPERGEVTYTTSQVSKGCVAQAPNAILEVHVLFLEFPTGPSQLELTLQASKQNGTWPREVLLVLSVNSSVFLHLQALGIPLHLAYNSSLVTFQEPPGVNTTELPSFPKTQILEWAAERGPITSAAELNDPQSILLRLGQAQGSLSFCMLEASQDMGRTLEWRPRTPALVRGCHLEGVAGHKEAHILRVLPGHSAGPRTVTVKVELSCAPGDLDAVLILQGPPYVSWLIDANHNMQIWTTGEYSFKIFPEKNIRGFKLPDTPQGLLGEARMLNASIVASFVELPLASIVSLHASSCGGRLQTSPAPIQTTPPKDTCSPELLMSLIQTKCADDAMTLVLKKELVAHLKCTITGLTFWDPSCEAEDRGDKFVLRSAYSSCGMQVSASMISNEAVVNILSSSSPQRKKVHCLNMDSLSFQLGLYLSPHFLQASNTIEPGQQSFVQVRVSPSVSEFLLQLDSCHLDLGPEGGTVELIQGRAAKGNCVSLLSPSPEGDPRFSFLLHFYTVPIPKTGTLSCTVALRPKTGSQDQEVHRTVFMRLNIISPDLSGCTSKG

[2] = molecular target: T1, soluble Endoglin (sEng), recombinant, as spiked or purified protein (human); assay: sandwich ELISA: cENG10 coated at 4 ug/mL, preformed equimolar Bmp9/sEng complex against Bmp9 alone, bound Bmp9 detected with biotinylated anti-Bmp9 antibody and an HRP conjugate

binding [1]: binds
binding [2]: binds
B1: purified human Bmp9 (ligand, UniProt Q9UK05 320-429, looked up)
chain: SAGAGSHCQKTSLRVNFEDIGWDSWIIAPKEYEAYECKGGCFFPLADDVTPTKHAIVQTLVHLKFPTKVGKACCVPTKLSPISVLYKDDMGVPTLKYHYEGMSVAECGCR
